From the supplement of paper PMC12823440, “Inhibitors supercharge kinase turnover through native proteolytic circuits” (Nature, 2025)
Structures can show the parent of a compound that is named as a salt. The list shows a part of the results. Hit calls seldom repeat between salt and free forms of one compound.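 Kinases, fused to nanoluciferase, were expressed in K562 cells; luminescence was measured every 4 h from 2 to 18 h as percent of control (DMSO = 100%, positive control = 0%). A time point is decreased if signal falls significantly (2 sigma). Hits were called by the authors by a rule that is not shown; the count of time points alone does not decide it.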

By UniProt entry, the sequences of proteins in these tests, tags left out.
UniProt P28482, whole entry: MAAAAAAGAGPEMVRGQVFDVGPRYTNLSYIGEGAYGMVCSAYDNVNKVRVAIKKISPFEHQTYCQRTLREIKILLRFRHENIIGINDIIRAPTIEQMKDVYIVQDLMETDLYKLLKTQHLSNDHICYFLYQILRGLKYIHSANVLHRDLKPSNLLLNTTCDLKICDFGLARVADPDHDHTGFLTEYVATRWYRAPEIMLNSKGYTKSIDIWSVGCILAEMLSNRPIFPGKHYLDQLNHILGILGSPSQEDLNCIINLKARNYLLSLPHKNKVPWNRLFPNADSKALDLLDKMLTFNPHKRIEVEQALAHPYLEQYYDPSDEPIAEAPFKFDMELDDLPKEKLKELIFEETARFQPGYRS

Each compound was assayed against MAPK1 (UniProt P28482) (assay: kinase-Nluc reporter destabilization hit call (1 = scored as downregulated) (binary); higher = compound decreases kinase abundance). Details: 2.5 µM; K562; 2-18 h.

kinase-Nluc reporter destabilization hit call, inactive:
CN1CCCN(C(=O)c2cccc(-c3ccc(/C=C4/C(=O)Nc5ccc(Cl)cc54)o3)c2)CC1 [CX-6258 (hydrochloride)] 0, Clc1ccc(C2(c3ccc(-c4cn[nH]c4)cc3)CCNCC2)cc1 [AT7867 (dihydrochloride)] 0, CC(C)Oc1ccc(-c2nn([C@@H](C)c3oc4ccc(F)cc4c(=O)c3-c3cccc(F)c3)c3ncnc(N)c23)cc1F [Umbralisib] 0, C=CC(=O)Nc1cc(Nc2nccc(-c3cn(C)c4ccccc34)n2)c(OC)cc1N(C)CCN(C)C [Osimertinib] 0, COc1cc2c(Oc3ccc4[nH]c(C)cc4c3F)ncnc2cc1OCCCN1CCCC1 [Cediranib (maleate)] 0, CC(C)Oc1ccc(-c2nn([C@@H](C)c3oc4ccc(F)cc4c(=O)c3-c3cccc(F)c3)c3ncnc(N)c23)cc1F [Umbralisib (hydrochloride)] 0, COc1ccc(S(=O)(=O)N(CCO)c2ccccc2CN(C)C/C=C/c2ccc(Cl)cc2)cc1 [KN-93 (hydrochloride)] 0, C=CC(=O)N1CCN(c2ncnc3c(F)c(-c4c(O)cccc4F)c(Cl)cc23)CC1 0, COc1ccc(S(=O)(=O)Nc2ccccc2CN(C)C/C=C/c2ccc(Cl)cc2)cc1 [KN-92 (hydrochloride)] 0, CCN(CC)Cc1ccc(OC)c(-c2cc3c(-c4ccc(C(=O)O)c(C(C)C)c4)ccnc3[nH]2)c1 0
